Reference: patent publication US11058699B2, “Method and compositions for inhibition of double stranded DNA viruses” (WISCONSIN ALUMNI RESEARCH FOUNDATION, priority 2008, dated 2021)
At least one compound was matched to its structure with a doubt left.

System: HaCaT cells
Test: Cell cycle status by flow cytometry (propidium iodide) in HaCaT cells
Assay type: cell-based, human
Details: 100 μM

CCOC(=O)C1=C(C)NC(=S)NC1c1cccc(O)c1 (stereo not shown) [monastrol]
cell cycle arrest phase: cell cycle arrest in M
